Article doi:10.64898/2025.12.09.692982
Where a chain is given by its changes, count along the chain named. No constants are given. Whether binding was seen depends on the method and setting. In cells and extracts the contact can be indirect. Some results given as binding are weak or reduced against the parent protein; the word gives no strength. Where a sequence is shown, tags or fusion partners need not be part of it.

The chains behind the UniProt entries cited, without tags or fusion partners. Where a name states a change or a piece, a line headed by the entry shows the natural chain unless it says otherwise.
UniProt P49336: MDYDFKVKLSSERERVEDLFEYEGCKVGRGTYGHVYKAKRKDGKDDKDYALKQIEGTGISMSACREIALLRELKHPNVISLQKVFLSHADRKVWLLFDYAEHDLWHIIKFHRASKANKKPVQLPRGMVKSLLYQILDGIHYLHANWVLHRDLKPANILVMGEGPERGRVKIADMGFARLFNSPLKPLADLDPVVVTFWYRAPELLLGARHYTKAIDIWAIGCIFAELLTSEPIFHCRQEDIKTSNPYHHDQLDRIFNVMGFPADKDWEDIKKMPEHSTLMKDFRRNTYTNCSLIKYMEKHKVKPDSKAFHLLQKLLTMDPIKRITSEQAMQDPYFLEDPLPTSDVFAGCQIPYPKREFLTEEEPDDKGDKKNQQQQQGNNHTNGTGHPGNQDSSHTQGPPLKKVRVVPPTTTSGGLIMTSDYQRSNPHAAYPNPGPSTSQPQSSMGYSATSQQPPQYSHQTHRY

Legend:
Assay in all cases: co-IP
[1] = target: T1, MTBP wild type, C-terminally tagged (3xFlag-TEV2-GFP) (UniProt Q96DY7)
T1 sequence: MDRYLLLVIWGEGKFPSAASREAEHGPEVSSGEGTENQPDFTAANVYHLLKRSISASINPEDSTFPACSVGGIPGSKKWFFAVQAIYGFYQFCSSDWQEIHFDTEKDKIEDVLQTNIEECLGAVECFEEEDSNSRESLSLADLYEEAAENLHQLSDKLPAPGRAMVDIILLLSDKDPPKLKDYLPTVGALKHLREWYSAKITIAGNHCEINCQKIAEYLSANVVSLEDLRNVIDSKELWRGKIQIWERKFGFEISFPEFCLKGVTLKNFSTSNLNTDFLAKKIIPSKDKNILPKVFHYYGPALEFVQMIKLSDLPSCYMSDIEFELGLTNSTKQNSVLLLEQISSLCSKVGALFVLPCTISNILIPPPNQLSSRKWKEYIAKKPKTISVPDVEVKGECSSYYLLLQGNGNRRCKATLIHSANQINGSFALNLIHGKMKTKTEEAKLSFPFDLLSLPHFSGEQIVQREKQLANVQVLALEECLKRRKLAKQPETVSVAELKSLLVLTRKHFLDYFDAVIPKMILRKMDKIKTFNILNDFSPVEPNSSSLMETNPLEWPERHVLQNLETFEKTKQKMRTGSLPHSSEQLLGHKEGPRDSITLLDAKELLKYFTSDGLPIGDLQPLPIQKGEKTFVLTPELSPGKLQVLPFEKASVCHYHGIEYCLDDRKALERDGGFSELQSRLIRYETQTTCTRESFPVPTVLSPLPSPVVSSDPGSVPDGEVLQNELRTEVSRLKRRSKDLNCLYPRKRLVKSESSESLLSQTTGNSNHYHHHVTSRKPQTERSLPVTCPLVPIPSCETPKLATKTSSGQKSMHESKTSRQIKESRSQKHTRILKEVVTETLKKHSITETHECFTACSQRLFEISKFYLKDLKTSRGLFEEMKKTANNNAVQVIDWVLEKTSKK

[2] = target: T2, MTBP-7pm, seven point mutant, C-terminally tagged (3xFlag-TEV2-GFP) (UniProt Q96DY7)
T2 sequence: T1 sequence with L620D, P622D, L623D, F632A, V633D, L634D, T635A

[3] = target: T3, MTBP-1D, single point mutant, C-terminally tagged (3xFlag-TEV2-GFP) (UniProt Q96DY7)
T3 sequence: T1 sequence with T687D

## CDK8/CCNC kinase (from UniProt P49336 1-464; P24863 1-283) (complex)
[1]
  binding: binds
[2]
  binding: no binding
[3]
  binding: no binding
